Measured values taken from article PMC12800062.
These are yes or no findings as the source states them, for the method shown. In cells and extracts the contact can be indirect. Some results given as binding are weak or reduced against the parent protein; the word gives no strength. One block for each binder: values may come before it.

How the values were obtained:
[1] = target: T1, TGFBR3 (mouse (in primary FAPs from C57BL/6 mice)) (UniProt O88393); assay: co-IP; CoIP in FAPs with immunoblot, both directions (precipitation of KRT10, blot for TGFBR3; precipitation of TGFBR3, blot for KRT10); input as control; n = 3
T1 sequence: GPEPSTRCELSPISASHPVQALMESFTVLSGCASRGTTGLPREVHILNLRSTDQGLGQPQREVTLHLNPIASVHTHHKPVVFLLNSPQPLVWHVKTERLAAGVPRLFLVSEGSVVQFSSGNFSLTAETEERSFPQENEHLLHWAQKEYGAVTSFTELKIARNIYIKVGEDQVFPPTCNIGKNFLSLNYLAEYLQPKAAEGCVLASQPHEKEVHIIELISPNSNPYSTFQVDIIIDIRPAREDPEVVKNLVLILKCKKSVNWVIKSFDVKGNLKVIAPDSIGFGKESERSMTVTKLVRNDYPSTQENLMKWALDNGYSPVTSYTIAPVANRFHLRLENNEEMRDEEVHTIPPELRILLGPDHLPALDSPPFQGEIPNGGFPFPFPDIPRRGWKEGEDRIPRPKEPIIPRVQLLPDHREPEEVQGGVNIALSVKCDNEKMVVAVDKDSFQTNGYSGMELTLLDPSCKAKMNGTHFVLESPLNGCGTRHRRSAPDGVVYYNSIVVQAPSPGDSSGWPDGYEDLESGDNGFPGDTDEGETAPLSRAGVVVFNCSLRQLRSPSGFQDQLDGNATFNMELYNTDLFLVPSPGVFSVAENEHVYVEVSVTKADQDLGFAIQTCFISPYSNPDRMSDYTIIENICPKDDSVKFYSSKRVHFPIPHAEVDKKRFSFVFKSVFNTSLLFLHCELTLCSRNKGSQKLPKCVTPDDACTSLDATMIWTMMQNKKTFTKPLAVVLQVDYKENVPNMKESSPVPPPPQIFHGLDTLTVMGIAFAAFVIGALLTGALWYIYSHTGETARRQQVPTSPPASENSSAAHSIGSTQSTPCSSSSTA

[2] = target: T2, KRT10 (mouse (in primary FAPs from C57BL/6 mice)) (UniProt P02535); assay: as above
T2 sequence: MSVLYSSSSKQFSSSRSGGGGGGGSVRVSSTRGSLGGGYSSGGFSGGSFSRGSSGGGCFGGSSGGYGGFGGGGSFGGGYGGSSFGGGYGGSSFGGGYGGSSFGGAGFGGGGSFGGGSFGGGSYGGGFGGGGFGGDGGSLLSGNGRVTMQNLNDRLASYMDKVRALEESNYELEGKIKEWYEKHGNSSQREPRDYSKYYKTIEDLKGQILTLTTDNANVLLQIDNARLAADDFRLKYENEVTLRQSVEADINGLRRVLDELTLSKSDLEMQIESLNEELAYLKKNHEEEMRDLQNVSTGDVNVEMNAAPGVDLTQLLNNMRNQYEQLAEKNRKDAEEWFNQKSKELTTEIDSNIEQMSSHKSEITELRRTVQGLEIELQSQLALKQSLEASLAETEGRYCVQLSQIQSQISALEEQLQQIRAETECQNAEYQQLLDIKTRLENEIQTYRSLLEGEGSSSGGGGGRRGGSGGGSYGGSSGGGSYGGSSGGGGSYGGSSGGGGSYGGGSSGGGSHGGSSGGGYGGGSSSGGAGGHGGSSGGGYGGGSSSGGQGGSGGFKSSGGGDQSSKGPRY

binding [1]: binds
B1: KRT10 (protein, UniProt P02535 1-570)
chain: T2 sequence

binding [2]: binds
B2: TGFBR3 (receptor, UniProt O88393 23-850)
chain: T1 sequence
